Data published in patent publication US20230303695A1.
Results are given in words; binding and its absence hold for the method and conditions named. Some results given as binding are weak or reduced against the parent protein; the word gives no strength.

T1: D1 domain of IGSF8 on CT26 cells (human) (UniProt Q969P0)
T1 sequence (looked up): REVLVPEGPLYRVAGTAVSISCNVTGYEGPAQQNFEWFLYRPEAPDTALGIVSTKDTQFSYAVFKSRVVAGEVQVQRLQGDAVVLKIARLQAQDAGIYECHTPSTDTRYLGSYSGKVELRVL

T2: cynomolgus monkey IGSF8 expressed on CT26 cells (cynomolgus monkey)
T2 sequence: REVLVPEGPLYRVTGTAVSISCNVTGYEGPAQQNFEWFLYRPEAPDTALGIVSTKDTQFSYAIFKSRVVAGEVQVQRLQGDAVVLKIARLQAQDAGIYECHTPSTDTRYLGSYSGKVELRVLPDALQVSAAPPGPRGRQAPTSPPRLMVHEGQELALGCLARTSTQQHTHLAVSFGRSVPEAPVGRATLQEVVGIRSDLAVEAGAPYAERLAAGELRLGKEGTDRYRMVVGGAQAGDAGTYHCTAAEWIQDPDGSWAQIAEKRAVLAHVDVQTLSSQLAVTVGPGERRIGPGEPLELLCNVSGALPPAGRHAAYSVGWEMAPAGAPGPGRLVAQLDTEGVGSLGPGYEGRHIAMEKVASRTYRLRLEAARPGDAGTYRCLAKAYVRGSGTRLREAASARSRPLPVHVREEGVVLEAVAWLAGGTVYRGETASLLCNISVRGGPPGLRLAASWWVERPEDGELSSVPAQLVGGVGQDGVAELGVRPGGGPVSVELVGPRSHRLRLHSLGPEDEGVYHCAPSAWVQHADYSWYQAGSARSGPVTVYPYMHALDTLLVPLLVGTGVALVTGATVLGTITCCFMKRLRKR


Experiments:
[1] = biological target: T1, D1 domain of IGSF8 on CT26 cells (human); assay: FACS on CT26 cells (FIGS. 21 and 22)
[2] = biological target: T1, D1 domain of IGSF8 on CT26 cells (human); assay: FACS, single antibody dose, CT26 cells expressing IGSF8-D1
[3] = biological target: IGSF8 protein without D1 domain (human) (UniProt Q969P0); assay: FACS, single antibody dose, IGSF8-D24 (D2-D4 with TM, no D1) expressed on CT26 cells
[4] = biological target: T2, cynomolgus monkey IGSF8 expressed on CT26 cells (cynomolgus monkey); assay: FACS on CT26 cells expressing cynomolgus monkey IGSF8, anti-human Fc-PE
[5] = biological target: T2, cynomolgus monkey IGSF8 expressed on CT26 cells (cynomolgus monkey); assay: FACS on CT26 cells expressing IGSF8

Row | Binder | binding [1] | binding [2] | binding [3] | binding [4] | binding [5]
1 | Antibody C33 (1C2) (antibody, V domains shown) VH: QVQLVESGGGVVQPGRSLRLSCAASGFTFSTYGMHWVRQAPGKGLEWVAVIWDDGSYKYYGDSVKGRFTISRDNSKNTLYLQMNSLRAEDTAVYYCARDGSGWGYAFDIWGQGTMVTVSS VL: DIQLTQSPSSLSASVGDRVTITCQASQDISEYLNWYQHKPGKAPNPLVFDAANLETGVPPRFSATGSGTDFSLTITSLQPEDFATYYCQQYDSFPYTFGQGTRLDIK | binds | binds |  |  | 
2 | Antibody C36 (1B4) (antibody, V domains shown) VH: EVQLLESGGGLVQPGGSLRLSCAASGFTFSSYAMSWVRQAPGKGLEWVSGITGSGGSTYYADSVKGRFTISRDNSKNTLYLQMNSLRAEDTAIYYCARGGALDIWGQGTMVTVSS VL: DIQMTQSPSSLSASVGDRVTITCRASQVIHNYLAWYKQKPGQAPKLLIYSASSLQSGVPSRFSGSGSGTDFTLTISSLQPEDFATYYCQQSYSTPLTFGGGTKVEIKR | binds | binds | binds |  | 
3 | Antibody C37 (3F12) (antibody, V domains shown) VH: EVQLVQSGGGLVKPGGSLRLSCAASGFTFSSYSMNWVRQAPGKGLEWVSSISSSSSYIYYADSVKGRFTISRDNAKNSLYLQMNSLRAEDTAVYYCAGRQYDFWSGWDWFDPWGQGTLVTVSS VL: DIQLTQSPSSLSASVGDRVTITCRASQSISTYLNWYQQKPGKAPKLLIHDASILQSGVPSRFSGSGSGTDFTLTISSLQAEDFATYYCQQSYSTLPYTFGQGTKVEIK | binds | binds | binds |  | 
4 | Antibody C38 (2B4) (antibody, V domains shown) VH: EVQLVESGGGLEQPGGSLRLSCAGSGFTFRDYAMTWVRQAPGKGLEWVSSISGSGGNTYYADSVKGRFTISRDNSKNTLYLQMNSLRAEDTAIYYCARGEYSSGWPSWFDPWGQGTLVTVSS VL: EIVLTQSPSSLSASVGDRVTISCRASRTVGTFLNWYQQRPGKPPQALILGVSILEGGVSSRFSGAGSGTEFSLTISSLQPEDIGTYYCQQSHDVPRTFGQGTKVDLRR | binds | binds |  |  | 
5 | Antibody C30 (B34) (antibody, V domains shown) VH: EVQLLESGGGLVQPGGSLRLSCAASGFTFSSYAMSWVRQAPGKGLEWVSGITGSGGSTYYADSVKGRFTISRDNSKNTLYLQMNSLRAEDTAVYYCARGRQVDKWGQGTLVTVSS VL: DIMLTQSPSSLSASVGDRVTITCRASQSIHNYLNWIQQTPGKAPKLLVFAASTLQRGVPPRYSGRGSGTEFTLTISSLQPEDFATYYCQQSYTTPLTFGGGTKVEIRR | binds | binds |  |  | 
6 | Antibody C31 (B46) (antibody, V domains shown) VH: QVQLVESGGGVVQPGRSLRLSCAASGFTFSTYGMHWVRQAPGKGLEWVAVIWDDGSYKYYGDSVKGRFTISRDNSKNTLYLQMNSLRAEDTAVYYCAGGYSYSYMAIWGKGTTVTVSS VL: DIVLTQSPSSLSASVGDRVTITCRASQGISTFLNWYQQKPGKAPKLLIYAASSLQSGVPSRFSGSGSGTDFTLTIGSLQPEDFASYFCQQTYSTQWTFGQGTKVEIK | binds | binds |  |  | 
7 | Antibody C32 (B104) (antibody, IgG1, V domains shown) VH: QVQLVQSGAEVKRPGASVKVSCKASGYTFTNDIIHWVRQAPGQRLEWMGWINAGYGNTQYSQNFQDRVSITRDTSASTAYMELISLRSEDTAVYYCARGYYRSPTWFDWWGQGTLVTVSS VL: ETTLTQSPSSLSASVGDRVTITCRASQSISSWLAWYQQKPGKAPKLLIYKASSLESGVPSRFSGSGSGTEFTLTISSLQPDDFATYYCQQYGDYPYTFGQGTKLEIKR | binds | binds |  |  | 
8 | L1-01 (antibody, V domains shown) VH: QVQLVESGGGVVQPGRSLRLSCAASGFTFSTYGMHWVRQAPGKGLEWVAVIWDDGSYKYYGDSVKGRFTISRDNSKNTLYLQMNSLRAEDTAVYYCARDGSGWGYAFDIWGQGTMVTVSS VL: DIQLTQSPSSLSASVGDRVTITCQASQDISEYLNWYQHKPGKAPNPLVFDAANLETGVPPRFSATGSGTDFSLTITSLQPEDFATYYCQQYDSFPYTFGQGTRLDIK |  |  |  | binds | binds
9 | L2-01 (antibody, V domains shown) VH: EVQLVESGGGLEQPGGSLRLSCAGSGFTFRDYAMTWVRQAPGKGLEWVSSISGSGGNTYYADSVKGRFTISRDNSKNTLYLQMNSLRAEDTAIYYCARGEYSSGWPSWFDPWGQGTLVTVSS VL: EIVLTQSPSSLSASVGDRVTISCRASRTVGTFLNWYQQRPGKPPQALILGVSILEGGVSSRFSGAGSGTEFSLTISSLQPEDIGTYYCQQSHDVPRTFGQGTKVDLR |  |  |  | binds | binds
10 | L2-10 (antibody, V domains shown) VH: EVQLVESGGGLEQPGGSLRLSCAASGFTFRDYAMTWVRQAPGKGLEWVSSISGSGGSTYYADSVKGRFTISRDNSKNTLYLQMNSLRAEDTAIYYCARGEYSSGWPSWFDPWGQGTLVTVSS VL: DIQMTQSPSSLSASVGDRVTITCRASRTVGTFLNWYQQKPGKAPKALILHTSILEGGVPSRFSGSGSGTDFTLTISSLQPEDIATYYCQQSHDVPRTFGQGTKVEIK |  |  |  | binds | 
